We go through one substance from paper doi:10.1101/308841.

The chains behind the UniProt entries cited, without tags or fusion partners.
UniProt P35222: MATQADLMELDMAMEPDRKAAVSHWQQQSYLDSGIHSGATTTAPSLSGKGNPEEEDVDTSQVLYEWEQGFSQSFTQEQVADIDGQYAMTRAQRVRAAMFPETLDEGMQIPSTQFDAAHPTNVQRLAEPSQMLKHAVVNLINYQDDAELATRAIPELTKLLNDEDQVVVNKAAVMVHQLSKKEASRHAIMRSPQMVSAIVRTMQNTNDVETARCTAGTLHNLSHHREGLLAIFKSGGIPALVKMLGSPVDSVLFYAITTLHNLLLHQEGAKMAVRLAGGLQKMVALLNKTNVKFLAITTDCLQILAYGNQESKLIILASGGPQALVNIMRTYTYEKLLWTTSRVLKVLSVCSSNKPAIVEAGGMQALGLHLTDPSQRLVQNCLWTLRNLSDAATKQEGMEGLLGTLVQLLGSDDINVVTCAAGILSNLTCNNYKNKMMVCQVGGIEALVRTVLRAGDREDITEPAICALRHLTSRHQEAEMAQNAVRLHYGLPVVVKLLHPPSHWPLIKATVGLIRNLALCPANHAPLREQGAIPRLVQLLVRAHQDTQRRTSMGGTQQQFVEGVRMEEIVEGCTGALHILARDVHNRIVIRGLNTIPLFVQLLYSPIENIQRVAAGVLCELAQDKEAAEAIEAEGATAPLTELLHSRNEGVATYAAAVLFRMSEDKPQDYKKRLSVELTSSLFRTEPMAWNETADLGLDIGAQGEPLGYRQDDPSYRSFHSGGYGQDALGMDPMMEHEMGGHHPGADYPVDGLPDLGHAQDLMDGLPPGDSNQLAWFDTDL
UniProt O15169: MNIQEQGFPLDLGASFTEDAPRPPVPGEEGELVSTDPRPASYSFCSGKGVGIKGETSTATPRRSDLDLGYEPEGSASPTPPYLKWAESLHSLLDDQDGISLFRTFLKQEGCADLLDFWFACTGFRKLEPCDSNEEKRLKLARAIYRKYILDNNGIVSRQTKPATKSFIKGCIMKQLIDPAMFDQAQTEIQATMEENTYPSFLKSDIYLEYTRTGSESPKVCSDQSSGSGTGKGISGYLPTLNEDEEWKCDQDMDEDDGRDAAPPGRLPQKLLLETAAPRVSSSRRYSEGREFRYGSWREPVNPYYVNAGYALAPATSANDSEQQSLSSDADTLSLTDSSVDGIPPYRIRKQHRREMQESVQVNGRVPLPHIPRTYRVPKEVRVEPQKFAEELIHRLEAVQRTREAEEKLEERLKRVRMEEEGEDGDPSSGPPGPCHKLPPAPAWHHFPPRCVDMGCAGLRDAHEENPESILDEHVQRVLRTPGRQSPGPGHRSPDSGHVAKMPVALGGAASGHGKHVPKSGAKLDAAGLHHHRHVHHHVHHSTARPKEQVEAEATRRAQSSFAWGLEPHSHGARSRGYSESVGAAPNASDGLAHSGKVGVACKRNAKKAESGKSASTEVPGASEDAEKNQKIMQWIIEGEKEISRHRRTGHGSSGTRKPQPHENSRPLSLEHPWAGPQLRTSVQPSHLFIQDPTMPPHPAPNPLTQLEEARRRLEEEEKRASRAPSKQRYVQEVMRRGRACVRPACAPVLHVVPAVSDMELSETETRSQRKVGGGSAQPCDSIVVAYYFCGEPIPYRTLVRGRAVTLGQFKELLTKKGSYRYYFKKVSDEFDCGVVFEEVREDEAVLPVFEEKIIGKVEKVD

This test addresses β-catenin, endogenous (human (endogenous in HCT-15, COLO205, HEK293T)) (UniProt P35222). Put plainly: co-IP.

No constants are given. Whether binding was seen depends on the method and setting. In cells and extracts the contact can be indirect. Some binding calls cover weakened binding; strength is not graded here.

As for “AXIN1, endogenous (HEK293T) (from UniProt O15169 1-862)”, the binding result is given as “binds”.
